This is an account of results in the supplement of paper PMC6411743.

Sequences of proteins named here, by UniProt entry; tags and fusion partners are left off. A change or cut given only in a name is not applied to a line headed by its entry.
UniProt P36871: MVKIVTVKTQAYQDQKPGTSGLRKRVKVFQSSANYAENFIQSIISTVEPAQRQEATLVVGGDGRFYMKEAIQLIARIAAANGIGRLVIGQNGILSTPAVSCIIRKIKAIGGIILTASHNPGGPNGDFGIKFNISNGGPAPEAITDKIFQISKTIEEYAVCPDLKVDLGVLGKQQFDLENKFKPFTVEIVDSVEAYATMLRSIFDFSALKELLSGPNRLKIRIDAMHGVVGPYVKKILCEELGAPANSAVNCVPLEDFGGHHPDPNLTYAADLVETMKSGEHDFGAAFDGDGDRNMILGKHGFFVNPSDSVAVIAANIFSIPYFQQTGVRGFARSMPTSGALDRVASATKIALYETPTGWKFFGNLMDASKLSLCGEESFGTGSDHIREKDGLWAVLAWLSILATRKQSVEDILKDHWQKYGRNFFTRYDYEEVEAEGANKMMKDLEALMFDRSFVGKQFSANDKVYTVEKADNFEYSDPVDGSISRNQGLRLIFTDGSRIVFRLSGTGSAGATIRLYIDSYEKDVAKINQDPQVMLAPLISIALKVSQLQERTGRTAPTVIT
UniProt P31939: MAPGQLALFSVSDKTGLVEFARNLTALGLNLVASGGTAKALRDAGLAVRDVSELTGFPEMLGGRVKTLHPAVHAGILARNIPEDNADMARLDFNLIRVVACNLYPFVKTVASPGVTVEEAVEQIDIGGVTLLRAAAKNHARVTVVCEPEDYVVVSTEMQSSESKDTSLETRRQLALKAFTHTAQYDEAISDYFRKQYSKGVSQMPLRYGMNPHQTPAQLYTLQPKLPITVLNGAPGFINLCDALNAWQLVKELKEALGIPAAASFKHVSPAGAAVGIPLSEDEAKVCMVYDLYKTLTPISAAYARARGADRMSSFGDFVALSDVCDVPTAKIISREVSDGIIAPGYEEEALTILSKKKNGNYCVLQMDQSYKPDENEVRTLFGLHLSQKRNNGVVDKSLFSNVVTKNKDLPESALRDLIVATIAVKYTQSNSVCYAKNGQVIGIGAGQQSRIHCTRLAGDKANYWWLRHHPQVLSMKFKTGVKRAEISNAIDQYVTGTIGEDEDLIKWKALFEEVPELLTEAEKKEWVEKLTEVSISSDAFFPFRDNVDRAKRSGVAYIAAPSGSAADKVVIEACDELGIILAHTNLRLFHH
UniProt P32121, whole entry: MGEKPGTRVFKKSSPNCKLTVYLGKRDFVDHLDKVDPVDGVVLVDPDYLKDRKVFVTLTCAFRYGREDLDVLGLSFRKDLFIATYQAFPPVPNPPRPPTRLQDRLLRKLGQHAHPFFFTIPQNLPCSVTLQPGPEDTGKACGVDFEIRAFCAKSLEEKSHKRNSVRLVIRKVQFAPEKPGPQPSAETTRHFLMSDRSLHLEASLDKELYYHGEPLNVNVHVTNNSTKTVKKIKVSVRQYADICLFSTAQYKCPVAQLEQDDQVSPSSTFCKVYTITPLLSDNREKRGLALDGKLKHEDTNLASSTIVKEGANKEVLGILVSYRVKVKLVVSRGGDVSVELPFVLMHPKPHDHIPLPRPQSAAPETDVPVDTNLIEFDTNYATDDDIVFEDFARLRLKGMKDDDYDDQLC
UniProt P37198: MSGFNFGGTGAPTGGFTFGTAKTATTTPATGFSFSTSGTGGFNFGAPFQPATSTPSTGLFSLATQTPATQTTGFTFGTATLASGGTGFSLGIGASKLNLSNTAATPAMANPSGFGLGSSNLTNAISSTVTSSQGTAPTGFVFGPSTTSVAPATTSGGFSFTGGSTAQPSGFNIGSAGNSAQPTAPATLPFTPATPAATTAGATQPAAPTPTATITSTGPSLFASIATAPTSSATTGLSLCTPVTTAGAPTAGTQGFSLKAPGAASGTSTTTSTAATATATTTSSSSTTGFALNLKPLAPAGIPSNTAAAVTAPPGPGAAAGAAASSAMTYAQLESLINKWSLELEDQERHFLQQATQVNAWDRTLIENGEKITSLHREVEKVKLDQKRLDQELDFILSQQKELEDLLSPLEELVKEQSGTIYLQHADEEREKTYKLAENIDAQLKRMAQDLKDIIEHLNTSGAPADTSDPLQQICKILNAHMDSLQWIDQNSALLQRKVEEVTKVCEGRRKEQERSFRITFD
UniProt P49903: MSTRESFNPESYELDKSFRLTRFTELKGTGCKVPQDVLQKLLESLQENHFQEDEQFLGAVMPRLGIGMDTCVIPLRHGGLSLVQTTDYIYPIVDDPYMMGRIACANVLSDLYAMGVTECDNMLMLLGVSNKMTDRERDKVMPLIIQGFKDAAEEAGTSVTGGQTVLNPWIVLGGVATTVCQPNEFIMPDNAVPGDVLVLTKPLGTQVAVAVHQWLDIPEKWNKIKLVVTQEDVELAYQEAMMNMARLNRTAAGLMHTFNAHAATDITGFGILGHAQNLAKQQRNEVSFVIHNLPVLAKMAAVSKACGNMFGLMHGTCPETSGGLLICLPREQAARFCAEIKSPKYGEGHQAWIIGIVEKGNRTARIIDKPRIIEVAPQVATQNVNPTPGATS
UniProt P26885: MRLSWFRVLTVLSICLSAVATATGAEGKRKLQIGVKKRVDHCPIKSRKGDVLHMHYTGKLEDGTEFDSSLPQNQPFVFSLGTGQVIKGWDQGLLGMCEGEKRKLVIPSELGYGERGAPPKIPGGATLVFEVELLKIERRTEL
UniProt P27701: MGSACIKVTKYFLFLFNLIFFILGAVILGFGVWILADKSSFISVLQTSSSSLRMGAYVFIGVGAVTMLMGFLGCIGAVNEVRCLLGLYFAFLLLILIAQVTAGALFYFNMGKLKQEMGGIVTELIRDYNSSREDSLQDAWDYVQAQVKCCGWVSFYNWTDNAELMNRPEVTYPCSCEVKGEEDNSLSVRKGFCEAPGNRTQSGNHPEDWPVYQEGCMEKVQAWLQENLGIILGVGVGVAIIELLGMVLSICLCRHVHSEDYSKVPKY
UniProt P41252: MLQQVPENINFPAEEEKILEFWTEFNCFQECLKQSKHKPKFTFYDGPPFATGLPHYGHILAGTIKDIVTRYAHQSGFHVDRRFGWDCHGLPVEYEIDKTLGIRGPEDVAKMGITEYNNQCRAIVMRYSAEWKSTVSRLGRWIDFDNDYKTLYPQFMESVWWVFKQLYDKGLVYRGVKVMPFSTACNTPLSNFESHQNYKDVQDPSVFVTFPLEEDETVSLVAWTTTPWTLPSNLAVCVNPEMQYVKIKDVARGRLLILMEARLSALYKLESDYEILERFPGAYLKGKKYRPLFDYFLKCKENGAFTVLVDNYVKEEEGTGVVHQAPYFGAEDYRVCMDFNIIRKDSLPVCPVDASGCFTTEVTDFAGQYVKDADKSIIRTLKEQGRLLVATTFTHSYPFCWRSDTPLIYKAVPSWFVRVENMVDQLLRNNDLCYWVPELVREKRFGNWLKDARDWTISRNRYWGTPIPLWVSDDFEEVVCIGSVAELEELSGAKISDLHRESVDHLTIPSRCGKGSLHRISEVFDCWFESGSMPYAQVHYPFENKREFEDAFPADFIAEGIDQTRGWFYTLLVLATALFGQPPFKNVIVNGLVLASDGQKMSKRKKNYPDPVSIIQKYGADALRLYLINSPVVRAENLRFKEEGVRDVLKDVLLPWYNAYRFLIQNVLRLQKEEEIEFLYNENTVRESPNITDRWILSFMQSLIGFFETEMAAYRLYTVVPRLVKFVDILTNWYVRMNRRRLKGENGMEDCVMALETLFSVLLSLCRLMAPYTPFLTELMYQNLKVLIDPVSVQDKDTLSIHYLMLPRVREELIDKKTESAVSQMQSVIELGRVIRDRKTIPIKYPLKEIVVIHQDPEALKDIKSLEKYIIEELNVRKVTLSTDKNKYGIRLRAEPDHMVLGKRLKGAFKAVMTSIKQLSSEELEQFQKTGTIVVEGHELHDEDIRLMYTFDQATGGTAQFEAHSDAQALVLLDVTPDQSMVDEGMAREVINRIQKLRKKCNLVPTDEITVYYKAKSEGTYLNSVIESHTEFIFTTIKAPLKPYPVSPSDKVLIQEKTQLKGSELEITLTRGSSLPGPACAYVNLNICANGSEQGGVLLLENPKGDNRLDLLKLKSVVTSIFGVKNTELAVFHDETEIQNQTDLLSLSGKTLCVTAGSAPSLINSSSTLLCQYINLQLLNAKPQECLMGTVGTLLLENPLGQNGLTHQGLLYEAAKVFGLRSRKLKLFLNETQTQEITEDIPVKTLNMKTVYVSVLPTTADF
UniProt P40306: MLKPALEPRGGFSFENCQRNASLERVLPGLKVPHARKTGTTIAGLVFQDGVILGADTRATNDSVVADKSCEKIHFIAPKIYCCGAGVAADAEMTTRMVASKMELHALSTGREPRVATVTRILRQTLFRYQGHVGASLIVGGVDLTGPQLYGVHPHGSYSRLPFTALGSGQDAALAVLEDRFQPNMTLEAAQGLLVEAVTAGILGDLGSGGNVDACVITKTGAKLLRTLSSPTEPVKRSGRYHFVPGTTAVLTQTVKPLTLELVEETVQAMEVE
UniProt P32189: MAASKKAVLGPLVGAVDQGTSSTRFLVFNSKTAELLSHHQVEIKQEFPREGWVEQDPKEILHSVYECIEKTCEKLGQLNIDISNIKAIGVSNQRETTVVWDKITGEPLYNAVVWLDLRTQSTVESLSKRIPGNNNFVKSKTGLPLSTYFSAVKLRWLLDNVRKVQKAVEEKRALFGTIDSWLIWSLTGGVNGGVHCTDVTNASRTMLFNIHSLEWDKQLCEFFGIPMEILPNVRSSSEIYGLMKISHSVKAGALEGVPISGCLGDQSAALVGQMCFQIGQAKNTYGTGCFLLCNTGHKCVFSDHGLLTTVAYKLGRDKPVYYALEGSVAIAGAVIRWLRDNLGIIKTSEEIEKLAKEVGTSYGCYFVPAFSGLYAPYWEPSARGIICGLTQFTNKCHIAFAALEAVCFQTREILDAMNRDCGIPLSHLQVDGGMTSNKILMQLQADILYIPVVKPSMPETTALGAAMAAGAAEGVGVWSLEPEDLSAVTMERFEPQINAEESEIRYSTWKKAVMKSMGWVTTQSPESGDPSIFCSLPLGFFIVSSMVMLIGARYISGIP
UniProt P49796: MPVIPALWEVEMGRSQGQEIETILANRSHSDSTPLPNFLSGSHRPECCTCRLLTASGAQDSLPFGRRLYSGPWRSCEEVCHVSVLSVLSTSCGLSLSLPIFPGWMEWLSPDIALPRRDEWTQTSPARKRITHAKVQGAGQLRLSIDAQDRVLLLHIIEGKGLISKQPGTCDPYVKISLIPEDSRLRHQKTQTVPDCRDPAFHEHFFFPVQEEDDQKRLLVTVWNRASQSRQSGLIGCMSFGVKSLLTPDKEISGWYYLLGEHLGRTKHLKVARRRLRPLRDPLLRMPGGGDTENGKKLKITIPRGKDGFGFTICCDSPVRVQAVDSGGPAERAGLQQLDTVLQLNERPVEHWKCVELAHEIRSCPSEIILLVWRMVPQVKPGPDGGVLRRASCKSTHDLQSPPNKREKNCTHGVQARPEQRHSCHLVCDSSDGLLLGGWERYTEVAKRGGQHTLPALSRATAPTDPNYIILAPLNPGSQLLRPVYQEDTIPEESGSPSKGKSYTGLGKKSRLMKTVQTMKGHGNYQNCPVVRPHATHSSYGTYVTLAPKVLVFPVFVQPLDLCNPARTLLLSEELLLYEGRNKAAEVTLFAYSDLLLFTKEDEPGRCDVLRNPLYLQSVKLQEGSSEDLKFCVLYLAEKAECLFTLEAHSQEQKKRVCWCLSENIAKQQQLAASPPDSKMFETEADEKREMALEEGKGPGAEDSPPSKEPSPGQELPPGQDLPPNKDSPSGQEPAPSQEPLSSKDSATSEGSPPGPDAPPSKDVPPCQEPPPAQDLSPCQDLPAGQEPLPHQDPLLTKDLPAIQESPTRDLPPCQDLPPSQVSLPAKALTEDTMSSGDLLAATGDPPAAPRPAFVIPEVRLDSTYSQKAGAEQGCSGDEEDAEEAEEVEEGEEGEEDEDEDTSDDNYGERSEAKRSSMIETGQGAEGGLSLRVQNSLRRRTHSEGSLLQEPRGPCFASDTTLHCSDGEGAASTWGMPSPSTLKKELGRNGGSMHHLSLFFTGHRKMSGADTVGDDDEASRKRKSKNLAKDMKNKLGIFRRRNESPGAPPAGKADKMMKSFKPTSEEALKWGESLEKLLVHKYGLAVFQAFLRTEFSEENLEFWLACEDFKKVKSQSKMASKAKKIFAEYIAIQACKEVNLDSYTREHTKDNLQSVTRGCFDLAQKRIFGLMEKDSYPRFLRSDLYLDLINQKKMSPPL

Compound in the assay: Nc1nc2c(ncn2[C@@H]2O[C@H](COP(=O)(O)OP(=O)(O)OP(=O)(O)O)[C@@H](O)[C@H]2O)c(=O)[nH]1 [guanosine triphosphate]
The assay can be described thus: NP40-soluble protein abundance relative to vehicle (solubility fold change) (ratio); higher = more soluble protein in presence of GTP. The procedure, abridged: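 Data come from three independent experiments in which Dounce-homogenised Jurkat crude lysate was treated at eight concentrations from 0.1 to 10 mM. Treatment ran 10 min at room temperature and then 3 min at 37 °C, after which 0.8% NP40 and benzonase were added for 60 min at 4 °C before ultracentrifugation. The supernatant underwent TMT labelling and LC-MS/MS, and vsn-normalised intensities were expressed as fold change against the detergent-processed vehicle in each replicate.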

± gives the standard deviation of the averaged measurements. This is one part of the list.

As for PGM1 (UniProt P36871), the NP40-soluble protein abundance (concentration: 0.1mM) stood at 1.03 ± 0.026; the NP40-soluble protein abundance (concentration: 0.5mM) was determined as 1.02 ± 0.034; the NP40-soluble protein abundance (concentration: 1mM) came out at 0.9372 ± 0.0089; the NP40-soluble protein abundance (concentration: 2mM) turned out to be 0.933 ± 0.056; the NP40-soluble protein abundance (concentration: 4mM) turned out to be 0.918 ± 0.034; the NP40-soluble protein abundance (concentration: 6mM) was found to be 0.891 ± 0.015. Besides, the NP40-soluble protein abundance is, setting by setting: (concentration: 8mM) 0.867 ± 0.063; (concentration: 10mM) 0.832 ± 0.062.

Turning to ATIC (UniProt P31939), the NP40-soluble protein abundance was 0.957 ± 0.051 (concentration: 0.1mM); 0.975 ± 0.043 (concentration: 0.5mM); 0.92 ± 0.049 (concentration: 1mM); 0.901 ± 0.043 (concentration: 2mM); 0.894 ± 0.041 (concentration: 4mM); 0.895 ± 0.038 (concentration: 6mM). The NP40-soluble protein abundance amounted to 0.885 ± 0.061 (concentration: 8mM) and 0.861 ± 0.054 (concentration: 10mM).

Turning to UniProt P32121 and related entries, the NP40-soluble protein abundance was determined as 1.02 ± 0.026 (concentration: 0.1mM); 1.03 ± 0.028 (concentration: 0.5mM); 0.971 ± 0.022 (concentration: 1mM); 0.982 ± 0.048 (concentration: 2mM); 0.972 ± 0.04 (concentration: 4mM); 0.946 ± 0.053 (concentration: 6mM). Besides, the NP40-soluble protein abundance is, setting by setting: (concentration: 8mM) 0.95 ± 0.059; (concentration: 10mM) 0.95 ± 0.088.

As to UniProt P46783 and related entries, the NP40-soluble protein abundance (concentration: 0.1mM) turned out to be 1.01 ± 0.12; the NP40-soluble protein abundance (concentration: 0.5mM) was 0.992 ± 0.055; the NP40-soluble protein abundance (concentration: 1mM) turned out to be 1.15 ± 0.19; the NP40-soluble protein abundance (concentration: 2mM) came out at 1.11 ± 0.14; the NP40-soluble protein abundance (concentration: 4mM) is 1.04 ± 0.19; the NP40-soluble protein abundance (concentration: 6mM) is 0.999 ± 0.17. The NP40-soluble protein abundance runs as follows: (concentration: 8mM) 0.964 ± 0.16; (concentration: 10mM) 1.04 ± 0.21.

With NUP62 (UniProt P37198), the NP40-soluble protein abundance stood at 0.8692 ± 0.0052 (concentration: 0.1mM); 0.889 ± 0.025 (concentration: 0.5mM); 1.01 ± 0.021 (concentration: 1mM); 0.955 ± 0.038 (concentration: 2mM); 0.988 ± 0.064 (concentration: 4mM); 1.06 ± 0.053 (concentration: 6mM). Also, the NP40-soluble protein abundance was 1.08 ± 0.052 (concentration: 8mM) and 1.19 ± 0.047 (concentration: 10mM).

For the target UniProt P49903 and related entries, the NP40-soluble protein abundance by setting is: (concentration: 0.1mM) 1 ± 0.011; (concentration: 0.5mM) 1.02 ± 0.025; (concentration: 1mM) 0.981 ± 0.018; (concentration: 2mM) 0.9601 ± 0.0077; (concentration: 4mM) 0.986 ± 0.023; (concentration: 6mM) 0.947 ± 0.016. Besides, the NP40-soluble protein abundance was determined as 0.956 ± 0.018 (concentration: 8mM) and 0.925 ± 0.061 (concentration: 10mM).

In the case of FKBP2 (UniProt P26885), the NP40-soluble protein abundance stood at 0.904 ± 0.018 (concentration: 0.1mM); 0.873 ± 0.072 (concentration: 0.5mM); 1 ± 0.069 (concentration: 1mM); 0.954 ± 0.063 (concentration: 2mM); 0.902 ± 0.11 (concentration: 4mM); 0.918 ± 0.09 (concentration: 6mM). Besides, the NP40-soluble protein abundance (concentration: 8mM) is 0.858 ± 0.12 and the NP40-soluble protein abundance (concentration: 10mM) is 0.915 ± 0.084.

With UniProt P41214, the NP40-soluble protein abundance by setting is: (concentration: 0.1mM) 1.04 ± 0.051; (concentration: 0.5mM) 1.02 ± 0.04; (concentration: 1mM) 1 ± 0.021; (concentration: 2mM) 0.984 ± 0.041; (concentration: 4mM) 1 ± 0.034; (concentration: 6mM) 0.952 ± 0.033. Also, the NP40-soluble protein abundance (concentration: 8mM) came out at 0.981 ± 0.044 and the NP40-soluble protein abundance (concentration: 10mM) amounted to 0.933 ± 0.069.

In the case of UniProt P27701 and related entries, the NP40-soluble protein abundance by setting is: (concentration: 0.1mM) 0.973 ± 0.08; (concentration: 0.5mM) 0.937 ± 0.1; (concentration: 1mM) 0.942 ± 0.079; (concentration: 2mM) 0.952 ± 0.076; (concentration: 4mM) 0.961 ± 0.059; (concentration: 6mM) 0.909 ± 0.062. Besides, the NP40-soluble protein abundance by setting is: (concentration: 8mM) 0.952 ± 0.07; (concentration: 10mM) 0.979 ± 0.039.

Regarding IARS (UniProt P41252), the NP40-soluble protein abundance worked out at 1.12 ± 0.16 (concentration: 0.1mM); 1.23 ± 0.24 (concentration: 0.5mM); 1.13 ± 0.26 (concentration: 1mM); 1.27 ± 0.39 (concentration: 2mM); 1.29 ± 0.33 (concentration: 4mM); 1.27 ± 0.37 (concentration: 6mM). Also, the NP40-soluble protein abundance (concentration: 8mM) is 1.19 ± 0.28 and the NP40-soluble protein abundance (concentration: 10mM) is 1.11 ± 0.28.

As to PSMB10 (UniProt P40306), the NP40-soluble protein abundance was determined as 1.1 ± 0.11 (concentration: 0.1mM); 1.06 ± 0.088 (concentration: 0.5mM); 1.01 ± 0.11 (concentration: 1mM); 1.05 ± 0.15 (concentration: 2mM); 1.06 ± 0.14 (concentration: 4mM); 1.04 ± 0.14 (concentration: 6mM). The NP40-soluble protein abundance is, setting by setting: (concentration: 8mM) 1.04 ± 0.12; (concentration: 10mM) 0.996 ± 0.11.

In the case of UniProt P32189 and related entries, the NP40-soluble protein abundance turned out to be 0.999 ± 0.036 (concentration: 0.1mM); 1.07 ± 0.024 (concentration: 0.5mM); 0.971 ± 0.021 (concentration: 1mM); 0.9088 ± 0.0085 (concentration: 2mM); 0.9654 ± 0.0053 (concentration: 4mM); 0.96 ± 0.045 (concentration: 6mM). For the same target, the NP40-soluble protein abundance runs as follows: (concentration: 8mM) 0.833 ± 0.058; (concentration: 10mM) 0.881 ± 0.029.

As to UniProt P49590 and related entries, the NP40-soluble protein abundance is, setting by setting: (concentration: 0.1mM) 1.34 ± 0.43; (concentration: 0.5mM) 1.11 ± 0.055; (concentration: 1mM) 1.04 ± 0.03; (concentration: 2mM) 1.16 ± 0.15; (concentration: 4mM) 1.02 ± 0.024; (concentration: 6mM) 0.997 ± 0.056. Besides, the NP40-soluble protein abundance reads like this: (concentration: 8mM) 1.05 ± 0.028; (concentration: 10mM) 0.984 ± 0.1.

As for UniProt P49796 and related entries, the NP40-soluble protein abundance (concentration: 0.1mM) was 0.893 ± 0.075; the NP40-soluble protein abundance (concentration: 0.5mM) is 0.87 ± 0.13; the NP40-soluble protein abundance (concentration: 1mM) worked out at 0.908 ± 0.13; the NP40-soluble protein abundance (concentration: 2mM) stood at 0.872 ± 0.13; the NP40-soluble protein abundance (concentration: 4mM) is 0.832 ± 0.085; the NP40-soluble protein abundance (concentration: 6mM) stood at 0.864 ± 0.087. The NP40-soluble protein abundance was determined as 0.851 ± 0.096 (concentration: 8mM) and 0.92 ± 0.18 (concentration: 10mM).

Consider UniProt P49321 and related entries, for which the NP40-soluble protein abundance (concentration: 0.1mM) came to 0.859 ± 0.067; the NP40-soluble protein abundance (concentration: 0.5mM) worked out at 0.861 ± 0.08; the NP40-soluble protein abundance (concentration: 1mM) was determined as 0.926 ± 0.072; the NP40-soluble protein abundance (concentration: 2mM) was determined as 0.883 ± 0.11; the NP40-soluble protein abundance (concentration: 4mM) came out at 0.857 ± 0.094; the NP40-soluble protein abundance (concentration: 6mM) turned out to be 0.891 ± 0.096. Besides, the NP40-soluble protein abundance was determined as 0.866 ± 0.076 (concentration: 8mM) and 0.905 ± 0.082 (concentration: 10mM).
